Assay [1] has as its target mCherry-tagged DIC1a WD2AA (alanine mutation of WD2) (UniProt O88485). Description: co-IP; COS cells cotransfected with mCherry-tagged DIC1a (wild-type or WD mutants) and HA-tagged KLC1 or KLC2; IP with anti-mCherry; western blotting with anti-DIC and anti-HA.
Assay [2] addresses mCherry-tagged DIC1a WD1AA (alanine mutation of WD1) (UniProt O88485). The description is as above.
The target in assay [3] is DIC1a, bait of the yeast two-hybrid screen (UniProt Q63100). Kind of assay: two-hybrid; yeast two-hybrid screen for binding partners of DIC1a.

Chains of the proteins cited; added tags and fusions are not shown. Lines headed by an entry give the natural chain unless they say otherwise; changes in a name come on top. Residues count along the entry.
UniProt O88485: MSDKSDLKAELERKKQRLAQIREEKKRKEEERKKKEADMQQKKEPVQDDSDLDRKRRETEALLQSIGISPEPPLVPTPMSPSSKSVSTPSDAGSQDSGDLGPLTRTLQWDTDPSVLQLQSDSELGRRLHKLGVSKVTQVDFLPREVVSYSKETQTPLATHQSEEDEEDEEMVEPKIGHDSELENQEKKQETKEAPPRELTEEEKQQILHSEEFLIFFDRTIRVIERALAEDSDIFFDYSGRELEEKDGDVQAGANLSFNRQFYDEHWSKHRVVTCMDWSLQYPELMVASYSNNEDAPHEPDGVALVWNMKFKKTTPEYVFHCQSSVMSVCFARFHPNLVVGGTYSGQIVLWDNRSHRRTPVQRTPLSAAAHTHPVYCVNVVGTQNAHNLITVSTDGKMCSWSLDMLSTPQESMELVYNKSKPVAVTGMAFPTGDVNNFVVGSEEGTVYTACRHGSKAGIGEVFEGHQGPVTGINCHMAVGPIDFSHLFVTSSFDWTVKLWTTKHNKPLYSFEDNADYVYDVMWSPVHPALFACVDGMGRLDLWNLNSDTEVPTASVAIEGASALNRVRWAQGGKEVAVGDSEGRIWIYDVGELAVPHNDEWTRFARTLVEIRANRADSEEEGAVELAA
UniProt Q63100: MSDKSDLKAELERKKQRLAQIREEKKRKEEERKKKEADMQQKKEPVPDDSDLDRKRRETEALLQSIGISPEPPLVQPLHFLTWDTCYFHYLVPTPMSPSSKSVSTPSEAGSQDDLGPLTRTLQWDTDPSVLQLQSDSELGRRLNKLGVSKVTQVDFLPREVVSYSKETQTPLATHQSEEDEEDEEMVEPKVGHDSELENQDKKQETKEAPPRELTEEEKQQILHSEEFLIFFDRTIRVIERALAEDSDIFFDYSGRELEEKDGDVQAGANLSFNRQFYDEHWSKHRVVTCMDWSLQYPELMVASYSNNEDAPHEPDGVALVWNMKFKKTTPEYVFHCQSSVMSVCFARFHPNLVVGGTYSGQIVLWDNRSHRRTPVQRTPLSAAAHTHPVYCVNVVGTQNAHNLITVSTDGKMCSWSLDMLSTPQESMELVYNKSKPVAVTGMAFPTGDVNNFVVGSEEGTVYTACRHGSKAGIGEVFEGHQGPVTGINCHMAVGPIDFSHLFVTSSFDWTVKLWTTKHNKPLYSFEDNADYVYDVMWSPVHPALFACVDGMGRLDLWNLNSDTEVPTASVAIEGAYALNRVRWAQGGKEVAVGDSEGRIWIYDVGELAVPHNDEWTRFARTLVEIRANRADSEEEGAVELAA
UniProt O88447: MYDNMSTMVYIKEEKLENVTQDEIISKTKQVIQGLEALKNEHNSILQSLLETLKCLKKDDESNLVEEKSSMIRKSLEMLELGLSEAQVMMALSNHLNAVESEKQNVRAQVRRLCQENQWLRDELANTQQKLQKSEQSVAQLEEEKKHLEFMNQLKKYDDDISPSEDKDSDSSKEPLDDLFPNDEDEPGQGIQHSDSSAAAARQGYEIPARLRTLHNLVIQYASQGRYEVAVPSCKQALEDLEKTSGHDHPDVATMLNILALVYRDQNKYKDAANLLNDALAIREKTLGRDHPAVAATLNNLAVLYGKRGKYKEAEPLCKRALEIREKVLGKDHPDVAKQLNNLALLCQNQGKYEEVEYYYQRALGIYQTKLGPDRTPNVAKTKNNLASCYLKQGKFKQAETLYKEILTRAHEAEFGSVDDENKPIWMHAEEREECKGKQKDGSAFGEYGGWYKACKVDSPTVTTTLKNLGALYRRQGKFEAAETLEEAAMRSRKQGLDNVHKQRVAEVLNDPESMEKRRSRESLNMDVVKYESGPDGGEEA
UniProt P33175, residues 389-637: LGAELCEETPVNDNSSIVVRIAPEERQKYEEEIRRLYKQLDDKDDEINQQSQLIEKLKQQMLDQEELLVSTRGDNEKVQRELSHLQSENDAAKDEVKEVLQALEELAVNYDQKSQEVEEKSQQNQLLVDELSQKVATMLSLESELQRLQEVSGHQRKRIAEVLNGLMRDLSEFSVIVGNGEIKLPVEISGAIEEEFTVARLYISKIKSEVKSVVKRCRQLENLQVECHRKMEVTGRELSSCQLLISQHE
UniProt O88448: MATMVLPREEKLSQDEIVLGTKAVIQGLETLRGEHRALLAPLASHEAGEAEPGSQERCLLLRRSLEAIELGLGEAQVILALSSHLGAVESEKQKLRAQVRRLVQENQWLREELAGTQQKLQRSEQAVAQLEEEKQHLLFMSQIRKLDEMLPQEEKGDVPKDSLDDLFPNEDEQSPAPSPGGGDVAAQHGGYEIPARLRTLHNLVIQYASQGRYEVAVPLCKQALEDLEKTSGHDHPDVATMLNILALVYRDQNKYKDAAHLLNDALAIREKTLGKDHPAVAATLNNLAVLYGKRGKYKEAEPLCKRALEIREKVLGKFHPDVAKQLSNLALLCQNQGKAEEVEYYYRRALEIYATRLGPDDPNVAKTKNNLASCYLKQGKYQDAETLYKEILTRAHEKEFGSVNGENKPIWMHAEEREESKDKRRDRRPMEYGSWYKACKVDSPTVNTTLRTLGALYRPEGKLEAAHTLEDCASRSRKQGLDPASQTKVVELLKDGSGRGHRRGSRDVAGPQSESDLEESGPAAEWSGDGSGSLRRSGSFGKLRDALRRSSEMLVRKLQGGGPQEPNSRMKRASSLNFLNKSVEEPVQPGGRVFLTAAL

No constants are given. Whether binding was seen depends on the method and setting. Binding can be weak; no strength is given. For some assays here: In cells and extracts the contact can be indirect.

As for “HA-tagged KLC1 (kinesin light chain 1) (from UniProt O88447 1-541)”, the binding entry in assay [1] and in assay [2] was “binds” in each case. In the case of “KIF5A residues 389–637, isolated in the yeast two-hybrid screen (from UniProt P33175 389-637) (domain or fragment)”, the binding result in assay [3] is given as “binds”. For the substance “HA-tagged KLC2 (kinesin light chain 2) (from UniProt O88448 1-599)”, the binding entry in assay [1] and in assay [2] was “binds” each time.
